This is one part of the list. Further columns of the screen follow, without active or inactive calls. Most of these compounds were active or inconclusive in the main read-out, so they are no random draw. The note in brackets gives the kind of curve behind each potency; many fits are weak.
Assay: qHTS Assay for Modulators of Lamin A Splicing
Settings: HeLa LMNA splicing GFP/RFP minigene ratio, 48 h
Outline: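 S3 HeLa cells stably expressing lamin A-EGFP splicing minigene plus DsRed2, 600 cells/well, 48 h compound exposure at 37C. Laser-scanning cytometry; analysed as GFP (500-530 nm)/RFP (575-640 nm) total intensity ratio; 0.5% DMSO vehicle.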

[1] = measured here: RFP viability control channel
[2] = measured here: GFP splicing reporter channel

Structure (SMILES)	AC50 [1]	AC50 [2]
COC(=O)c1ccc(Cl)c(NC(=O)CN(c2ccccc2)S(=O)(=O)c2ccc(OC)cc2)c1	25.1 µM [rising, single point]	
C#CCn1cc(/C=N/Nc2nc3ccccc3[nH]2)c2ccccc21	14.1 µM [rising, single point]	
Cc1ccccc1[C@@H](OCCN(C)C)c1ccccc1		0.00501 µM [falling, full curve, poor fit]
Cc1ccc(-c2noc(CSc3nc(N)cc(N)n3)n2)cc1	14.1 µM [rising, partial curve, poor fit]	
CCc1nc2ccccc2c(=O)n1NCCc1ccccc1	3.98 µM [rising, full curve, poor fit]	
CC1=CC(C)(C)N2C(=O)C3(NCCc4c3[nH]c3ccccc43)c3cccc1c32 (stereo not given)	12.6 µM [falling, single point]	
O=C(c1ccc(C(F)(F)F)cc1)N1CCC(=O)N(C(COCc2ccc(Cl)cc2)Cc2ccccc2)CC1 (stereo not given)	22.4 µM [rising, single point]	14.1 µM [rising, partial curve]
CC1=CC(C)(C)Nc2ccc(OC(=O)CCN3C(=O)c4ccccc4C3=O)cc21	20 µM [falling, single point]	22.4 µM [falling, partial curve]
Cc1cn2c(=O)cc(COC(=O)c3cccc(NC(=O)COc4ccccc4Cl)c3)nc2s1		0.0141 µM [rising, full curve, poor fit]
COc1ccc(NC(=O)CSc2nnc(C3CC3)n2C)cc1		5.01 µM [rising, partial curve, poor fit]
CCOC(=O)c1ccccc1NC(=O)N1CCc2c(sc(C)c2CC)C1c1ccccc1 (stereo not given)	11.2 µM [rising, single point]	
Cc1ccc(Cl)cc1N1CCN(C(=O)c2cnc(N3CCOCC3)c3ccccc23)CC1	12.6 µM [falling, partial curve, poor fit]	11.2 µM [falling, partial curve]
CC(C)Cn1c(O)c(/C=C2\C=NN=C2c2ccccc2)sc1=S	10 µM [rising, partial curve]	
C=CCn1c(COc2ccc(F)cc2)nnc1SCC(=O)N1CC(=O)Nc2ccccc21	14.1 µM [rising, single point]	
C=CCNCCCCOc1ccccc1-c1ccccc1		0.141 µM [rising, full curve, poor fit]
CC(=O)c1ccc(C(C)(C)c2ccc(C(C)=O)s2)s1	20 µM [rising, single point]	
COc1cc(/C=N/NC(=O)c2csc3c2CCCC3)cc(OC)c1O	35.5 µM [rising, single point]	
CCOC(=O)C1CCN(c2ncnc3c2c(-c2ccccc2)cn3-c2cccc(C)c2)CC1		0.355 µM [falling, full curve, poor fit]

A few values from the entries so far:
AC50 [2], Cc1ccccc1[C@@H](OCCN(C)C)c1ccccc1 is entered as 0.00501 µM [falling, full curve, poor fit]
AC50 [1], CCc1nc2ccccc2c(=O)n1NCCc1ccccc1 is entered as 3.98 µM [rising, full curve, poor fit]

More records

Structure (SMILES)	AC50 [1]	AC50 [2]
CCc1ccc(OCC(=O)N2c3ccccc3CCc3ccccc32)cc1	3.55 µM [falling, partial curve, poor fit]	10 µM [falling, partial curve, poor fit]
CCN1C(=O)/C(=C2/Sc3ccccc3N2CCCS(=O)(=O)O)SC1=S	35.5 µM [rising, single point]	35.5 µM [rising, single point]
COc1ccc(C2=CC(c3ccc(F)cc3)n3ncc(C(=O)Nc4ccc(C)cc4)c3N2)cc1 (stereo not given)	12.6 µM [rising, partial curve]	
CC(=O)Nc1ccc2nc(C3CC3)n(Cc3ccc(Cl)cc3)c(=O)c2c1	10 µM [falling, partial curve, poor fit]	
O=C(Cn1ccn(-c2ccc(F)c(F)c2)c(=O)c1=O)Nc1ccccc1F	17.8 µM [rising, partial curve, poor fit]	15.8 µM [rising, partial curve, poor fit]
O=C(CCCOc1ccccc1)NC(=S)Nc1ccccc1	2.51 µM [falling, partial curve, poor fit]	1.26 µM [falling, partial curve, poor fit]
Cc1cc(C(=O)CN2C(=O)c3ccccc3C2=O)c(C)n1Cc1cccs1	35.5 µM [rising, single point]	
COCCn1c(C)cc(C(=O)CSc2nnc(-c3cccnc3)n2-c2ccccc2F)c1C	0.0141 µM [falling, full curve, poor fit]	
CCOC(=O)c1scc(-c2ccccc2)c1S(=O)(=O)Nc1ccccc1F	20 µM [rising, partial curve, poor fit]	
CC1CC(C)CN(C(=O)c2cc3cc(Br)cc(Br)c3o2)C1 (stereo not given)	25.1 µM [rising, single point]	
CC1(C)CCC(NC(=O)[C@@H](N)CCC(=O)O)CC1	0.00112 µM [falling, full curve, poor fit]	
O=C1NC2(CCCCC2)C(=O)N1CCS(=O)(=O)Oc1ccc(Br)cc1	17.8 µM [falling, partial curve]	35.5 µM [falling, single point]
Cc1nc(-c2ccc(Cl)cc2)sc1CCNC(=O)C(=O)Nc1ccc(F)cc1F	5.62 µM [rising, single point]	
Cc1cccc[n+]1CC(=O)/C=C1\N(C)c2ccccc2C1(C)C	10 µM [rising, partial curve]	11.2 µM [rising, partial curve, poor fit]
COCCn1c(=O)c(-c2ccc(F)cc2)nc2cnc(Nc3cccc(OC)c3)nc21	8.91 µM [falling, partial curve]	
COC(=O)c1cccc(NC(=O)/C=C/c2ccc3c(c2)OCO3)c1	7.08 µM [rising, partial curve]	
COc1cc(/C=C2/C(=O)ON=C2C)ccc1OCc1cccc(F)c1	3.55 µM [falling, partial curve]	
COc1cccc(NC(=O)NCc2ccc3c(c2)CCN3C(=O)c2ccccc2)c1		0.398 µM [falling, full curve, poor fit]

From PubChem BioAssay AID1487 (National Center for Advancing Translational Sciences (NCATS), 2009)
